# Data source: PubChem BioAssay AID1159584 (Peter MacCallum Cancer Centre, 2016)
# Test: 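Genes that CDH1-null MCF10A cells selectively depend on to survive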 (primary screen)
# Cells: human MCF10A breast epithelial cells, parental and CDH1-null
# Reagent: siRNA against human genes
# Measured: 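Cell viability by CellTiter-Glo ATP luminescence, each line scaled to the mean of mock wells across plates, then CDH1-null over parental ratio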
# Reading the numbers: CDH1-null / parental viability ratio: higher = CDH1-null cells survive relatively better than parental; CDH1-null viability vs mock: higher = more viable CDH1-null cells; parental viability vs mock: higher = more viable parental cells
# Shown is an unselected part of about 18,000 reagents. Not given: the amount of reagent, the time to read-out.
target gene,CDH1-null / parental viability ratio,CDH1-null viability vs mock (fraction of mock),parental viability vs mock (fraction of mock)
DCAF8L1 (DDB1 and CUL4 associated factor 8 like 1),1.08,1.04,0.96
LRRC3B (leucine rich repeat containing 3B),1.46,0.73,0.5
NOL9 (nucleolar protein 9),1.09,0.76,0.7
KATNA1 (katanin catalytic subunit A1),1.09,0.98,0.9
DDTL (D-dopachrome tautomerase like),0.97,0.76,0.78
OR7C1 (olfactory receptor family 7 subfamily C member 1),0.95,0.96,1.01
ZNF346 (zinc finger protein 346),1.08,1.18,1.09
WBP1 (WW domain binding protein 1),1.03,0.64,0.62
ACSL4 (acyl-CoA synthetase long chain family member 4),0.92,0.95,1.03
TMEM150A (transmembrane protein 150A),1.05,0.82,0.78
"PCDHGA1 (protocadherin gamma subfamily A, 1)",0.93,0.64,0.69
OR10R2 (olfactory receptor family 10 subfamily R member 2),1.25,1.06,0.85
CD274 (CD274 molecule),1.14,0.5,0.44
ZNF610 (zinc finger protein 610),1.09,0.74,0.68
ARHGAP36 (Rho GTPase activating protein 36),0.94,0.6,0.64
KRT80 (keratin 80),1.19,0.76,0.64
PLK3 (polo like kinase 3),0.84,0.76,0.9
LIN52 (lin-52 DREAM MuvB core complex component),1.1,0.53,0.48
C1QTNF8 (C1q and TNF related 8),1.36,0.76,0.56
PLGRKT (plasminogen receptor with a C-terminal lysine),1.08,0.8,0.74
RND3 (Rho family GTPase 3),1.03,0.78,0.76
GPR4 (G protein-coupled receptor 4),0.89,0.62,0.7
RPTOR (regulatory associated protein of MTOR complex 1),0.79,0.48,0.61
CDK1 (cyclin dependent kinase 1),1.01,0.8,0.79
DGCR6L (DiGeorge syndrome critical region gene 6 like),1.22,0.66,0.54
C20orf141 (chromosome 20 open reading frame 141),1.33,0.93,0.7
ABCA2 (ATP binding cassette subfamily A member 2),0.85,0.46,0.54
CCNJ (cyclin J),0.72,0.66,0.92
NTSR1 (neurotensin receptor 1),1.54,0.8,0.52
CACUL1 (CDK2 associated cullin domain 1),1.02,0.93,0.91
ITGAV (integrin subunit alpha V),0.89,0.78,0.88
GGT1 (gamma-glutamyltransferase 1),1.08,0.7,0.65
ZNF658B (zinc finger protein 658B (pseudogene)),0.93,0.92,0.99
PLD1 (phospholipase D1),1.16,0.92,0.79
AP1G1 (adaptor related protein complex 1 subunit gamma 1),1.22,0.94,0.77
DPY19L4 (dpy-19 like 4),0.94,0.9,0.96
ELAVL2 (ELAV like RNA binding protein 2),1.21,1.09,0.9
LRRN2 (leucine rich repeat neuronal 2),0.71,0.44,0.62
AKAP12 (A-kinase anchoring protein 12),1.09,0.74,0.68
RNASE10 (ribonuclease A family member 10 (inactive)),1.29,0.9,0.7
ZFX (zinc finger protein X-linked),1.04,0.96,0.92
"SSPOP (SCO-spondin, pseudogene)",1.09,1.05,0.96
COPG2 (coat protein complex I subunit gamma 2),1.16,1.04,0.9
EPB41L4A (erythrocyte membrane protein band 4.1 like 4A),0.91,1.01,1.11
SCRN1 (secernin 1),1.2,0.84,0.7
PPARD (peroxisome proliferator activated receptor delta),0.98,0.97,0.99
FASTKD3 (FASTK mitochondrial RNA regulator 3),1.08,0.94,0.87
LAMP3 (lysosome associated membrane protein 3),0.65,0.44,0.68
NEDD4L (NEDD4 like E3 ubiquitin protein ligase),1.1,0.9,0.82
FGFBP2 (fibroblast growth factor binding protein 2),1.1,0.88,0.8
MRPS28 (mitochondrial ribosomal protein S28),1.27,1.12,0.88
RPS21 (ribosomal protein S21),1.18,0.26,0.22
"PCDHGA12 (protocadherin gamma subfamily A, 12)",0.99,0.89,0.9
SLC45A4,1.03,0.64,0.62
GABRA4 (gamma-aminobutyric acid type A receptor subunit alpha4),1,0.72,0.72
MC1R (melanocortin 1 receptor),0.94,1.01,1.08
APBA2 (amyloid beta precursor protein binding family A member 2),1.21,1.39,1.15
LAMP5 (lysosome associated membrane protein 5),1.03,1.1,1.07
AADAT (aminoadipate aminotransferase),1,0.96,0.96
CTCFL (CCCTC-binding factor like),1.14,1.03,0.9
TM4SF5 (transmembrane 4 L six family member 5),0.96,0.88,0.92
NEUROG1 (neurogenin 1),1,0.76,0.76
CLEC4M (C-type lectin domain family 4 member M),0.94,0.66,0.7
NXPE3 (neurexophilin and PC-esterase domain family member 3),0.84,0.72,0.86
COP1 (COP1 E3 ubiquitin ligase),1.02,0.96,0.94
GCK (glucokinase),1.1,0.92,0.84
"GIMAP2 (GTPase, IMAP family member 2)",1.04,0.94,0.9
IGHMBP2 (immunoglobulin mu DNA binding protein 2),0.81,0.52,0.64

Reformatted: results already given.
ZNF658B (zinc finger protein 658B (pseudogene))
- CDH1-null / parental viability ratio: 0.93
- CDH1-null viability vs mock (fraction of mock): 0.92
- parental viability vs mock (fraction of mock): 0.99

PLD1 (phospholipase D1)
- CDH1-null / parental viability ratio: 1.16
- CDH1-null viability vs mock (fraction of mock): 0.92
- parental viability vs mock (fraction of mock): 0.79

AP1G1 (adaptor related protein complex 1 subunit gamma 1)
- CDH1-null / parental viability ratio: 1.22
- CDH1-null viability vs mock (fraction of mock): 0.94
- parental viability vs mock (fraction of mock): 0.77

DPY19L4 (dpy-19 like 4)
- CDH1-null / parental viability ratio: 0.94
- CDH1-null viability vs mock (fraction of mock): 0.9
- parental viability vs mock (fraction of mock): 0.96

ELAVL2 (ELAV like RNA binding protein 2)
- CDH1-null / parental viability ratio: 1.21
- CDH1-null viability vs mock (fraction of mock): 1.09
- parental viability vs mock (fraction of mock): 0.9

LRRN2 (leucine rich repeat neuronal 2)
- CDH1-null / parental viability ratio: 0.71
- CDH1-null viability vs mock (fraction of mock): 0.44
- parental viability vs mock (fraction of mock): 0.62

AKAP12 (A-kinase anchoring protein 12)
- CDH1-null / parental viability ratio: 1.09
- CDH1-null viability vs mock (fraction of mock): 0.74
- parental viability vs mock (fraction of mock): 0.68

RNASE10 (ribonuclease A family member 10 (inactive))
- CDH1-null / parental viability ratio: 1.29
- CDH1-null viability vs mock (fraction of mock): 0.9
- parental viability vs mock (fraction of mock): 0.7

ZFX (zinc finger protein X-linked)
- CDH1-null / parental viability ratio: 1.04
- CDH1-null viability vs mock (fraction of mock): 0.96
- parental viability vs mock (fraction of mock): 0.92

SSPOP (SCO-spondin, pseudogene)
- CDH1-null / parental viability ratio: 1.09
- CDH1-null viability vs mock (fraction of mock): 1.05
- parental viability vs mock (fraction of mock): 0.96
